Reference: PubChem BioAssay AID493014 (National Center for Advancing Translational Sciences (NCATS), 2011)
The campaign covered roughly 340,000 compounds. About 170 (0.05%) were called active. The inconclusive results got no clear call from the source; some entries with a clear call stand among them for comparison. The call rests on the fitted dose curve; in most records, active means well fitted inhibition curve with a large enough effect in the signal ratio, with a control signal flat (not every such curve was filed as active); inconclusive means small, poorly fitted or top-dose-only effect, or effect the other way, or a change in a side signal; inactive means flat fitted curve, though single readings scatter; the % refers to the signal ratio. Potencies of inconclusive entries are doubtful fits and often do not repeat.

Test: qHTS Assay to Find Inhibitors of Chronic Active B-Cell Receptor Signaling;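 on activity change, negative = inhibition: plate controls were basal doxycycline-induced cells for no effect and cells given 10 µM MG132 for full effect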
Conditions: ABC-DLBCL IkBa-CBG/CBR reporter, luminescence ratio (green luciferase fused to IkBa over red control in TMD8 lymphoma cells), 4 h; activity change, negative = inhibition: at 46.1 µM (top of the series)
In short: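 TMD8 ABC-DLBCL cells carrying doxycycline-inducible green luciferase fused to IkappaBalpha plus unfused red luciferase were exposed to compounds (up to 46 uM) for 4 hrs at 37C. Activity came from the overlap-corrected green/red luminescence ratio.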
Potency means the concentration at half of the fitted maximal effect.

SMILES	activity change, negative = inhibition	Potency
Nc1c(C(=O)NC2CCCCC2)c2nc3ccccc3nc2n1/N=C/c1ccco1	inconclusive: 1.86%	–
Clc1ccc(-c2cn3c(n2)-c2ccccc2C3)cc1Cl	inactive	–
O=C(Nc1ccccc1C(=O)NCc1cccnc1)c1cccc([N+](=O)[O-])c1	inconclusive: 4.13%	–
COc1ccccc1-n1c(=O)oc2ccc(Cl)cc2c1=O	–	inconclusive: 4.11 µM [falling, single point]
N#Cc1c(N)nc(SCC(=O)NCCc2ccccc2)c(C#N)c1-c1cccs1	inactive	–
O=c1[nH]c2ccc([N+](=O)[O-])cc2nc1/C=C(\O)c1ccccc1	inactive	–
CCC1=NN(C(=O)Cc2ccc(OC)c(OC)c2)C(O)(C(F)(F)F)C1 (stereo not given)	inconclusive: 0.506%	–
O=C(O)/C(=C\c1ccc(-c2ccccc2[N+](=O)[O-])o1)c1ccccc1	–	inconclusive: 35.5 µM [falling, single point]
S=C(NCc1ccco1)Nc1cccc(Cl)c1	inactive	–
Cc1onc(-c2c(Cl)cccc2Cl)c1C(=O)c1c[nH]c(C(=O)NC2CC2)c1	inconclusive: -10.6%	–
O=C(c1ccc2c(c1)[nH]c(=S)n1c3ccccc3nc21)N1CCN(c2ncccn2)CC1	inactive	–
COc1ccc(CN2CSC(=S)N(Cc3ccccc3)C2)cc1	–	inconclusive: 35.5 µM [falling, single point]
O=C(CCCN1CCC(O)(c2ccc(Br)cc2)CC1)c1ccc(F)cc1	inconclusive: 0.0951%	–
COCCn1c(SCc2cc(=O)n3cc(C)ccc3n2)nc2ccccc2c1=O	inconclusive: -1.79%	–
C/C(=N/NC(=O)C1CC1(c1ccccc1)c1ccccc1)c1ccco1 (stereo not given)	inconclusive: -1.06%	–
O=C(CSC1=NCCS1)Nc1nc2c(s1)CCCC2	–	inconclusive: 35.5 µM [falling, single point]
CCC(C)NC(=O)CN1C(=O)NC2NC(=O)NC21 (stereo not given)	inactive	–
CCOc1ccc2[nH]c3c(NCCN(C)C)ncnc3c2c1	inconclusive: -56.1%	–
Cc1nn(C2CCS(=O)(=O)C2)c2nc(C3CC3)cc(C(=O)Nc3cccc(C#N)c3)c12 (stereo not given)	inactive	–
CN(C)c1ccc(/C=N/NC(=O)CCCO)cc1	–	inconclusive: 8.91 µM [falling, partial curve]
N#C/C(=C/c1cccs1)c1nc2ccccc2[nH]1	inconclusive: 0.874%	–
CSc1ccc(C(c2c(C(=O)O)[nH]c3ccccc23)c2c(C(=O)O)[nH]c3ccccc23)cc1	inconclusive: 4.13%	–
Cc1ccc(-n2ncc3c(NNC(=O)c4ccco4)ncnc32)c(C)c1	inactive	–
COc1cc(-c2cc(C(=O)NCc3ccco3)c3ccccc3n2)cc(OC)c1OC	inconclusive: 1.86%	–
c1ccc(-c2ccc3[nH]ccc3c2)cc1	inconclusive: 16.7%	–
O=C(O)CCn1c(O)c(C=C2N=c3ccccc3=N2)sc1=S	–	inconclusive: 28.2 µM [falling, partial curve]
CCCOc1ccc(C(=O)c2ccccc2C(=O)OC2CCOC2=O)cc1OCCC (stereo not given)	inactive	–

SMILES	activity change, negative = inhibition	Potency
COc1ccccc1Nc1cc(C(=O)NCc2cccnc2)c2ccccc2n1	inconclusive: 13.9%	–
C/C(CCc1ccccc1)=N\NC(=O)c1ccccc1[N+](=O)[O-]	–	inconclusive: 20.6 µM [falling, partial curve]
Cc1ccc(-n2c(-c3nn(C)c(C)c3Cl)n[nH]c2=S)cc1	inactive	–
Cc1cc(-c2nn(C)c(=O)c3ccccc23)cc(C)c1O	–	inconclusive: 3.55 µM [falling, partial curve, poor fit]
COC(=O)c1ccc2c(=O)n(Cc3ccc(C(=O)NCCCN4CCOCC4)cc3)c(=S)[nH]c2c1	–	inconclusive: 20 µM [falling, partial curve, poor fit]
COc1ccc(C(=O)Nc2ccc(N3CCN(Cc4ccccc4)CC3)cc2)cc1	inactive	–
C=CCn1c(SCC(=O)N2CCc3ccccc3C2)nc2sc(C)c(C)c2c1=O	inactive	–
CN1CCC(=NNC(=O)C(=O)Nc2ccccc2)CC1	–	inconclusive: 11.2 µM [falling, partial curve]
Cc1cc(C)nc(SCc2nnc(SCC(=O)Nc3nccs3)n2Cc2ccco2)n1	inconclusive: -0.236%	–
CC1(C)CC(=O)C(=Cc2cn(CCC#N)nc2-c2ccc(F)cc2)C(=O)C1	inconclusive: 1.47%	–
Cc1cc(N/N=C/c2ccccc2)nc(N)n1	inconclusive: -2.2%	–
CCOC(=O)N1CCN(C(=O)c2ccc3c(Cl)c4c(nc3c2)CCCC4)CC1	inconclusive: -28.3%	–
C[C@@]12CCC3[C@@](CCC4[C@@]3(C)CCC[C@@]4(C)C(=O)Nc3ccc(Cl)cc3)(CC1=O)C2 (stereo not given in full)	inconclusive: -1.27%	–
FC(F)(F)c1ccnc(Oc2ccc(C3=NCCS3)cc2)c1	inconclusive: 8.7%	–
C/C(=N\NC(=O)CCc1ccccc1)C1C(=O)c2ccccc2C1=O	–	inconclusive: 15.8 µM [falling, single point]
Fc1ccc(Cn2nnnc2CN2CCc3ccccc3C2)cc1	–	inconclusive: 23.1 µM [falling, single point]
Cc1ccc(NC(=O)c2cccc(Oc3ccc([N+](=O)[O-])cc3)c2)c(C(=O)O)c1	inconclusive: -19.6%	–
Cc1ccc(C(c2c(C)[nH][nH]c2=O)c2c(C)[nH][nH]c2=O)cc1	inconclusive: -20.3%	–
COCc1ccc(CN2CCCC(C(=O)Nc3ccc(-c4cccc(OC)c4)cc3)C2)o1 (stereo not given)	–	inconclusive: 15.8 µM [falling, single point]
CN1CCN(C(=O)c2cnn3c(C(F)F)cc(C4CC4)nc23)CC1	inconclusive: 4.19%	–
CN(C(=O)CSc1nnc(-c2cccs2)n1C1CC1)C1CCS(=O)(=O)C1 (stereo not given)	inconclusive: -0.582%	–
Cc1cccc(NS(=O)(=O)c2ccc3c(c2)Cc2cc(S(=O)(=O)Nc4cccc(C)c4C)ccc2-3)c1C	inconclusive: 5%	–
Cc1cnc(C(=O)OCC(=O)c2csc(N3CCCCC3)n2)cn1	inconclusive: 5.4%	–
Clc1cccc(CNc2nnnn2-c2ccccc2)c1	inactive	–
CC(=O)NC(NC(=S)Nc1ccc(C)cc1C)C(Cl)(Cl)Cl (stereo not given)	inactive	–
OCCC1CN(Cc2cccc3nonc23)CCN1Cc1ccsc1 (stereo not given)	inconclusive: -3.24%	–
O=C(Nc1cccc(Cl)c1)c1nc[nH]c1C(=O)NCc1ccccc1	–	inconclusive: 1.03 µM [rising, full curve]

SMILES	activity change, negative = inhibition	Potency
COCCCNCCOCCSc1ccc(Cl)cc1	inconclusive: -0.28%	–
Cn1c(=O)cc(C(=O)N/N=C/c2ccc(Cl)cc2)[nH]c1=O	–	inconclusive: 11.2 µM [falling, partial curve]
COc1ccc(/C=N/NC(=O)c2nc(-c3ccccc3)cc(-c3ccccc3)n2)cc1OC	inconclusive: 4.63%	–
CCCC(=O)NC(c1cccs1)c1cc([N+](=O)[O-])c2cccnc2c1O (stereo not given)	inactive	–
CN(Cc1ccccc1)c1nc(-c2cccc([N+](=O)[O-])c2)nc2ccccc12	inactive	–
COc1ccccc1-n1c(=O)c2c3c(sc2n2c(=S)[nH]nc12)CCC3	inactive	–
CC(=O)Nc1cccc(NC(=O)Cc2ccc3ccccc3c2)c1	–	inconclusive: 10 µM [falling, partial curve]
C=CCc1cccc(/C=N/NC(=O)C(C)Nc2ccc(C)cc2)c1O (stereo not given)	inactive	–
O=C(CN1CCN(S(=O)(=O)c2ccc(Cl)s2)CC1)N1CCCCC1	inconclusive: 2.01%	–
Cc1ccccc1C(=O)NNC1=NCCC1	–	inconclusive: 10.3 µM [falling, partial curve]
CCc1cccc(NC(=O)CCCN2C(=O)NC(C)(C)C2=O)c1	inconclusive: 3.85%	–
O=C(c1ccc(COc2ccccc2Br)cc1)N1CCCCC1	–	inconclusive: 1.64 µM [falling, full curve]
CCOC(=O)C1(Cc2cccc(OC)c2)CCN(Cc2cccc(O)c2)CC1	–	inconclusive: 6.31 µM [falling, single point]
COCc1cc(=O)oc2cc(NC(=O)c3ccc(C(C)(C)C)cc3)ccc12	inconclusive: 2.4%	–
O=C(NCc1ccccn1)c1ccc(Cl)c(S(=O)(=O)Nc2ccccc2C(=O)NCc2ccccn2)c1	–	inconclusive: 16.4 µM [rising, partial curve]
Cc1c(C(=O)Nc2ccc(F)cc2)nnn1-c1cccc(C(F)(F)F)c1	–	inconclusive: 31.6 µM [falling, single point]
COc1ccc(N2CCN(C(=O)CCNS(=O)(=O)c3ccccc3)CC2)cc1	inactive	–
O=C(NC(CC(=O)N1CCN(c2ccc([N+](=O)[O-])cc2)CC1)c1ccccc1)c1ccccc1Cl (stereo not given)	inactive	–
Cc1nc2ccccc2c(=O)n1/N=C/c1ccc(O)c(O)c1O	inactive	–
COc1cccc(/C=N/Nc2nc3ccccc3n3cnnc23)c1O	inconclusive: -5.38%	–
CCC(=O)Nc1ccc(-c2nn3c(C)nnc3s2)cc1C	–	inconclusive: 1.84 µM [rising, full curve]
Cc1ccc(N=Cc2cc3c(cc2O)OC(N)=C(C#N)C3c2ccccc2)cc1 (stereo not given)	–	inconclusive: 6.51 µM [falling, single point]
Cc1cccc(NC(=O)c2nc[nH]c2C(=O)N[C@@H](C)c2ccccc2)c1	–	inconclusive: 10.3 µM [rising, partial curve, poor fit]
CCOC(=O)c1csc(NC(=O)c2ccc(C#N)cc2)n1	inconclusive: 10.1%	–
Cc1ccc(-c2nc(COC(=O)C3=NN(c4ccccc4)C(=O)CC3)cs2)cc1	inconclusive: -0.574%	–
Cc1ccc(N(C(=O)CNC(=O)c2ccco2)C(C(=O)NC2CCCCC2)c2ccncc2)cc1F (stereo not given)	inactive	–

Quoted from the results shown, 4 compounds:
SMILES	activity change, negative = inhibition	Potency
CC(=O)NC(NC(=S)Nc1ccc(C)cc1C)C(Cl)(Cl)Cl (stereo not given)	inactive	–
OCCC1CN(Cc2cccc3nonc23)CCN1Cc1ccsc1 (stereo not given)	inconclusive: -3.24%	–
O=C(Nc1cccc(Cl)c1)c1nc[nH]c1C(=O)NCc1ccccc1	–	inconclusive: 1.03 µM [rising, full curve]
COCCCNCCOCCSc1ccc(Cl)cc1	inconclusive: -0.28%	–
